38 targets from the supplement of paper PMC6411743 can be followed below.

Protein sequences, listed by entry. Tags and fused reporters are not part of them. Lines headed by an entry give the natural chain unless they say otherwise; changes in a name come on top.
UniProt P54277: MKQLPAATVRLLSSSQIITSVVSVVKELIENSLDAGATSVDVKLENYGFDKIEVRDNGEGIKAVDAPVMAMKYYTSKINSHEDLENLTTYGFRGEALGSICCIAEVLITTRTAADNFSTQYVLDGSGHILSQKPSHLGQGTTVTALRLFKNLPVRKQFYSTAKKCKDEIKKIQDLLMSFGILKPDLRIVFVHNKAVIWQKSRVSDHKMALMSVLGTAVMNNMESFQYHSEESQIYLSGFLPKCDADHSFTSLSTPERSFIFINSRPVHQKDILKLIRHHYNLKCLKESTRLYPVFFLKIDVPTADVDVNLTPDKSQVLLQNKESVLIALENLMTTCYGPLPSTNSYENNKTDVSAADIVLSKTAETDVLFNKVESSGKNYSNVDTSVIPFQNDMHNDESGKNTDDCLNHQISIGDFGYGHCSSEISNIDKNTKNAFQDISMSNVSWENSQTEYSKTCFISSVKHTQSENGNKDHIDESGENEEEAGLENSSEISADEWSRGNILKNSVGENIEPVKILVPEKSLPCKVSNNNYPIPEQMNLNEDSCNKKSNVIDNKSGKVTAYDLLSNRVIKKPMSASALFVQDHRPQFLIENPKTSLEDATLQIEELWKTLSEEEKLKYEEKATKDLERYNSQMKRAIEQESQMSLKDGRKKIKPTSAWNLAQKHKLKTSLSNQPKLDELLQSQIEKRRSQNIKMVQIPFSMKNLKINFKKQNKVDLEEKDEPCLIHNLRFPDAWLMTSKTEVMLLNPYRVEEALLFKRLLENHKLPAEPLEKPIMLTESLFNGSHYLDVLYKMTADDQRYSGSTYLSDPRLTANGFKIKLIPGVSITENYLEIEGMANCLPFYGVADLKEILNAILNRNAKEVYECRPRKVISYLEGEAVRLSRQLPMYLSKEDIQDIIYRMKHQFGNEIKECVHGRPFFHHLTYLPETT
UniProt P55036: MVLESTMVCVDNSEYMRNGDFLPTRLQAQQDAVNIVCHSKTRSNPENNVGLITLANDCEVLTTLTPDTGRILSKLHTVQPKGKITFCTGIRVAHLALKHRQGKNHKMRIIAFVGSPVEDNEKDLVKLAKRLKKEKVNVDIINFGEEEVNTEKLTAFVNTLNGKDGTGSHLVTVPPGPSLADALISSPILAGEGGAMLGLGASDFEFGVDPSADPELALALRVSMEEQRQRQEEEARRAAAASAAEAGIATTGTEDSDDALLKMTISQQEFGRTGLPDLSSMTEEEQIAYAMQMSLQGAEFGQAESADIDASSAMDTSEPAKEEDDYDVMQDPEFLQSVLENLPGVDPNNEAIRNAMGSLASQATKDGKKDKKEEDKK
UniProt P78536: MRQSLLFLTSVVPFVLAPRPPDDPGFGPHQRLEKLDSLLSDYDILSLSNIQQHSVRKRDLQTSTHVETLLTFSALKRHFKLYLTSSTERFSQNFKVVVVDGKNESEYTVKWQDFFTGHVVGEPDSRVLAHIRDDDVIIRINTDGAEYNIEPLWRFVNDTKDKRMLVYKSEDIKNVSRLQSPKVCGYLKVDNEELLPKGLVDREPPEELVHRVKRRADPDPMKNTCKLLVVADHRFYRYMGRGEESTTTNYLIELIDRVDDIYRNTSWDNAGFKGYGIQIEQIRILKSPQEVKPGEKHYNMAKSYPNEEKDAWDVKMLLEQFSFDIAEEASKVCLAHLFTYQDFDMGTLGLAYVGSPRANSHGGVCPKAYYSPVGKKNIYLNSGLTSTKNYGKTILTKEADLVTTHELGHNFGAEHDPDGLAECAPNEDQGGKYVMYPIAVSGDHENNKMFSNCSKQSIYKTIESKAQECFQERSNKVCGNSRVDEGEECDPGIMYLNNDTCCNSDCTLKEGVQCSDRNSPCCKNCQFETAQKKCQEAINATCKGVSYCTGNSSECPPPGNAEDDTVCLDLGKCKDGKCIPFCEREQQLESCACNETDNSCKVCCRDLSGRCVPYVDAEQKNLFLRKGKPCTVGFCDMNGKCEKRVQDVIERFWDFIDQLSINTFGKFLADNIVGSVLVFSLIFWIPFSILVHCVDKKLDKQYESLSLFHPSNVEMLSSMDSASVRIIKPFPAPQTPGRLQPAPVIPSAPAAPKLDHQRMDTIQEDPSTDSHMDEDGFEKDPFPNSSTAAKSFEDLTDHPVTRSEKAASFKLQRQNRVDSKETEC
UniProt P56182: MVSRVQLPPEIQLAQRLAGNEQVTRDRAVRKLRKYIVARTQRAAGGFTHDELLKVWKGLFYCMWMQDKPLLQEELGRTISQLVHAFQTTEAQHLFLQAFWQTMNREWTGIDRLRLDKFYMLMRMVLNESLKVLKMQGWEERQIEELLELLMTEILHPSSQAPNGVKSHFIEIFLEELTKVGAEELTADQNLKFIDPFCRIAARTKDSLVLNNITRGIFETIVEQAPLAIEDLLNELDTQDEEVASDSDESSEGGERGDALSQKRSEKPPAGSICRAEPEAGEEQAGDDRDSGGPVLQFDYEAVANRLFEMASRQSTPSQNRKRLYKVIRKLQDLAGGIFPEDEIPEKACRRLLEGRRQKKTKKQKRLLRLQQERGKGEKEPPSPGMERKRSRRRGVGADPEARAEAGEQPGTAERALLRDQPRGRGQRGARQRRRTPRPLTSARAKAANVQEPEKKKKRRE
UniProt P56962: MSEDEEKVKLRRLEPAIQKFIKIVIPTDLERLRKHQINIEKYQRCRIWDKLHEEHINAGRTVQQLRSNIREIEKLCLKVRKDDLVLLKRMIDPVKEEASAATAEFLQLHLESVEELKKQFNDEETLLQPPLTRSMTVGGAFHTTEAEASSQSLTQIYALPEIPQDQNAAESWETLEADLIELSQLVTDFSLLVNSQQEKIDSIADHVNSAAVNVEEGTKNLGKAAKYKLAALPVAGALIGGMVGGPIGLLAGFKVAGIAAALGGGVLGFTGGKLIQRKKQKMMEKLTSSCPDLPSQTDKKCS
UniProt P52948: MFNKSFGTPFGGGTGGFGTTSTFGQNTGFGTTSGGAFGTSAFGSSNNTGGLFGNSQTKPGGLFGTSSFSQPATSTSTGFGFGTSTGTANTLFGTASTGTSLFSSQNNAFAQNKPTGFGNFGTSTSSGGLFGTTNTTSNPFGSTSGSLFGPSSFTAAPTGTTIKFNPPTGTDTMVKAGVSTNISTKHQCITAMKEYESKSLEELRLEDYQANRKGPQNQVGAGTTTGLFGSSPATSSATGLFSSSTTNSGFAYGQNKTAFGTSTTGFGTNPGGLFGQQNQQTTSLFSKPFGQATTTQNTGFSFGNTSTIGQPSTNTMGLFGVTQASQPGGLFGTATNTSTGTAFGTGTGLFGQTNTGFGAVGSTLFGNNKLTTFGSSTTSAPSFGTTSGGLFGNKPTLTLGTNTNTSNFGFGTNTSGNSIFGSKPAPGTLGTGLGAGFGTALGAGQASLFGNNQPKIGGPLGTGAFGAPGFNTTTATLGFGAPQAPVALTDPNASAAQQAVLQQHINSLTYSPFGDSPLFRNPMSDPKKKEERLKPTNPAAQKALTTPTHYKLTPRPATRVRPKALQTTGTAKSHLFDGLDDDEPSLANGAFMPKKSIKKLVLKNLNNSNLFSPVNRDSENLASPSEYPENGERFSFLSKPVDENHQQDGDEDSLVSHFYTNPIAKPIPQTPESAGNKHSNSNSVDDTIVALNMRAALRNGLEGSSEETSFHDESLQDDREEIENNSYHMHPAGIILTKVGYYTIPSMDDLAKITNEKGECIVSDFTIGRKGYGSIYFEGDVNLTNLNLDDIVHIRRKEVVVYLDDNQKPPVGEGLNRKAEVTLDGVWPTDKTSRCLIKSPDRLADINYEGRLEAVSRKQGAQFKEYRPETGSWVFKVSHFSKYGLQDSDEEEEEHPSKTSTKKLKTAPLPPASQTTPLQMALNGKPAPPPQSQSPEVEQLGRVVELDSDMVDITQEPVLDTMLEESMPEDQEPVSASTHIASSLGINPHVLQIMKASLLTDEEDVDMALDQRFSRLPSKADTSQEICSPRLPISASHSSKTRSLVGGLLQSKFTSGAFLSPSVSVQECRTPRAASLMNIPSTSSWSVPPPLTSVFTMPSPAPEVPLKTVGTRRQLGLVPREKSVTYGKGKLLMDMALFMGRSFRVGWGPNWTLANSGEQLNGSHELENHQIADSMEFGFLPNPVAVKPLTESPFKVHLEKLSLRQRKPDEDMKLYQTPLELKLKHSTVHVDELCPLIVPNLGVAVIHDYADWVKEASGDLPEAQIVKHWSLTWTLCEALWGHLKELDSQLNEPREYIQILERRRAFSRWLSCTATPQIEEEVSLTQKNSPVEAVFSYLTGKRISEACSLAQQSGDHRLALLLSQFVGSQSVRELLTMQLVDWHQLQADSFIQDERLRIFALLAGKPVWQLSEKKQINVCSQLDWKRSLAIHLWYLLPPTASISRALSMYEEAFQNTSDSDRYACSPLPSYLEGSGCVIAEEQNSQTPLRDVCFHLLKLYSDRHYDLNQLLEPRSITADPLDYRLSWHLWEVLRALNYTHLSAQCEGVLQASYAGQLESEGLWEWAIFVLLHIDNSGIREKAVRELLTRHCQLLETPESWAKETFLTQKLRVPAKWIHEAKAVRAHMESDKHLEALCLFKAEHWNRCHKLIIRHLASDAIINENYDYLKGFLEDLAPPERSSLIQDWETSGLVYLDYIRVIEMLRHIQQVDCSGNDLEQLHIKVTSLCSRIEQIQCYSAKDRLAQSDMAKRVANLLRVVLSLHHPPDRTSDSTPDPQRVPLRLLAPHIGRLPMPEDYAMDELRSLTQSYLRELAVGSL
UniProt P62834: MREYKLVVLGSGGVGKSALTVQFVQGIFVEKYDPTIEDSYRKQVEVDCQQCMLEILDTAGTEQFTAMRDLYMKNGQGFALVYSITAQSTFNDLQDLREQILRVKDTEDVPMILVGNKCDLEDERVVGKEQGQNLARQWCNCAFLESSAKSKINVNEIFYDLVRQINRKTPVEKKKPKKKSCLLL
UniProt P63092, whole entry, looked up: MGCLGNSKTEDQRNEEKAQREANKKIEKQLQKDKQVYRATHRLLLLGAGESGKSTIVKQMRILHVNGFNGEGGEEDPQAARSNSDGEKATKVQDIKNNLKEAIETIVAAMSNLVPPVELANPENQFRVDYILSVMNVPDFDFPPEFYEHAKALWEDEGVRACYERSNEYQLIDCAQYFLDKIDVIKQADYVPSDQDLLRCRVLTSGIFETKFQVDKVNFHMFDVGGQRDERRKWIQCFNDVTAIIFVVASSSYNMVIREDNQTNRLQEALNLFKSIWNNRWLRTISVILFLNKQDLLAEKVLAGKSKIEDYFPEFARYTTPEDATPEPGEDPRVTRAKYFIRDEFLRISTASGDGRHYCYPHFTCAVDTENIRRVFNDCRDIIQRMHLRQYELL
UniProt P78344: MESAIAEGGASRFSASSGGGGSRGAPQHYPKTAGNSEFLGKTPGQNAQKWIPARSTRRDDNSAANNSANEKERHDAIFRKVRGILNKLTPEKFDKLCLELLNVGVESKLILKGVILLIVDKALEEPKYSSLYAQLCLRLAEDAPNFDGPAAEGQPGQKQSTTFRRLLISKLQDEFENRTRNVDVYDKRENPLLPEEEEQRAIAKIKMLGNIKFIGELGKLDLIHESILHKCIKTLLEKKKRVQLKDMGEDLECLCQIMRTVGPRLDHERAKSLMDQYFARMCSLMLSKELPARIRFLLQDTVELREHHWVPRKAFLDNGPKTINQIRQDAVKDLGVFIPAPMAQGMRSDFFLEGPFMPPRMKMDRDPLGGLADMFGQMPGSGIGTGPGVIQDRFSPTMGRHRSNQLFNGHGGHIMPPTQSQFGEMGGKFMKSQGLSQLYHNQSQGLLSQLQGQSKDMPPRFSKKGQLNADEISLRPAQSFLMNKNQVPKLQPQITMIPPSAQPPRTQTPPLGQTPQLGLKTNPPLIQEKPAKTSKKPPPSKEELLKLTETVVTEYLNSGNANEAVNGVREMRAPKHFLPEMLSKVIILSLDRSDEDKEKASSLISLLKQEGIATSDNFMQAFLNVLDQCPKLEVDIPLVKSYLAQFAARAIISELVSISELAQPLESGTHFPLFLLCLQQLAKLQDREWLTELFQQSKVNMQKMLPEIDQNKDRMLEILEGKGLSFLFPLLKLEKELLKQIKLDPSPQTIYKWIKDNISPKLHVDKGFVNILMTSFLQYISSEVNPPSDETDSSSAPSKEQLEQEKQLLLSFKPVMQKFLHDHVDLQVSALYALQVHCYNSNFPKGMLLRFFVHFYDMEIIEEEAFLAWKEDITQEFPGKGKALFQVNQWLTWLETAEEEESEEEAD
UniProt P63146, whole entry: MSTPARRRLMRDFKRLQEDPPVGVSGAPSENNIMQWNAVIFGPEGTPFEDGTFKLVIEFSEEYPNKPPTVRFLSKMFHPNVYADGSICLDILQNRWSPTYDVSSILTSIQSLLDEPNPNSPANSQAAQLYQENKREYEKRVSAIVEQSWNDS
UniProt P57088: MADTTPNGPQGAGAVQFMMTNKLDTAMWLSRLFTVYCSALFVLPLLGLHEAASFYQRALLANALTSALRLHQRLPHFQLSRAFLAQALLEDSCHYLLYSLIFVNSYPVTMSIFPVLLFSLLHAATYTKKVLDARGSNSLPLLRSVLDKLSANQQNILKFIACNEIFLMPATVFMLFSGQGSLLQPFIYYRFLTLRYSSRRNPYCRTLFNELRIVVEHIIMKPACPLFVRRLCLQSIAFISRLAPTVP

± gives the standard deviation of the averaged measurements. The entries are a selection whose mix differs from that of the whole data set. Most entries show no effect beyond the scatter of the controls.

Compound in one assay: Nc1ncnc2c1ncn2[C@@H]1O[C@H](COP(=O)(O)OP(=O)(O)OP(=O)(O)O)[C@@H](O)[C@H]1O [adenosine triphosphate]
The assay can be described thus: NP40-soluble protein abundance relative to vehicle (solubility fold change) (ratio); higher = more soluble protein in presence of ATP. To be noted: concentration: 0.1mM. The method, boiled down: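 Jurkat crude lysate prepared with a Dounce homogeniser was treated at eight concentrations spanning 0.1 to 10 mM, 10 min at room temperature then 3 min at 37 °C. Solubilisation with 0.8% NP40 and benzonase and ultracentrifugation preceded TMT labelling of the supernatant for LC-MS/MS. Fold change against the detergent-processed vehicle was determined per replicate from vsn-normalised intensities, across three independent experiments.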
As for MARS (UniProt P56192), the NP40-soluble protein abundance turned out to be 0.97 ± 0.05.

For POLG (UniProt P54098), the NP40-soluble protein abundance was determined as 1 ± 0.052.

On to UniProt P54277 and related entries, for which the NP40-soluble protein abundance stood at 1.07 ± 0.076.

As for UniProt P55036 and related entries, the NP40-soluble protein abundance amounted to 0.974 ± 0.058.

Take PTTG1IP (UniProt P53801): the NP40-soluble protein abundance stood at 0.98 ± 0.04.

UniProt P78536 and related entries: the NP40-soluble protein abundance is 0.939 ± 0.057.

In the case of RAD23B (UniProt P54727), the NP40-soluble protein abundance turned out to be 0.905 ± 0.064.

In the case of MRPS36 (UniProt P82909), the NP40-soluble protein abundance was 0.94 ± 0.17.

Turning to FKBP1A (UniProt P62942), the NP40-soluble protein abundance was 1 ± 0.041.

Regarding UniProt P62753, the NP40-soluble protein abundance was determined as 0.927 ± 0.13.

Turning to UniProt P62280, the NP40-soluble protein abundance was 0.897 ± 0.15.

Regarding UniProt P63272, the NP40-soluble protein abundance is 1.03 ± 0.063.

Consider PURA (UniProt Q00577), for which the NP40-soluble protein abundance was 0.95 ± 0.035.

For the target UniProt P57076, the NP40-soluble protein abundance was 0.979 ± 0.037.

Turning to UniProt P55265 and related entries, the NP40-soluble protein abundance was found to be 1.04 ± 0.04.

Regarding UniProt P78330 and related entries, the NP40-soluble protein abundance turned out to be 0.97 ± 0.012.

Turning to UniProt P61088, the NP40-soluble protein abundance is 0.964 ± 0.032.

Take UniProt P62805: the NP40-soluble protein abundance is 0.84 ± 0.12.

Consider UniProt P61978 and related entries, for which the NP40-soluble protein abundance came out at 0.9907 ± 0.0099.

Regarding UniProt P57768 and related entries, the NP40-soluble protein abundance was 1.04 ± 0.041.

With MTPN (UniProt P58546), the NP40-soluble protein abundance is 0.862 ± 0.12.

HSPA2 (UniProt P54652): the NP40-soluble protein abundance worked out at 0.979 ± 0.037.

Turning to RRP1 (UniProt P56182), the NP40-soluble protein abundance amounted to 0.994 ± 0.025.

Regarding UniProt P53396 and related entries, the NP40-soluble protein abundance came to 1.04 ± 0.076.

As for STX17 (UniProt P56962), the NP40-soluble protein abundance stood at 0.977 ± 0.041.

UniProt P52948 and related entries: the NP40-soluble protein abundance came out at 0.99 ± 0.032.

With RABGGTB (UniProt P53611), the NP40-soluble protein abundance was found to be 1.09 ± 0.1.

Consider RAB8A (UniProt P61006), for which the NP40-soluble protein abundance is 0.983 ± 0.048.

UniProt P61966: the NP40-soluble protein abundance was found to be 0.969 ± 0.048.

UniProt P62834: the NP40-soluble protein abundance was 1.02 ± 0.049.

Regarding MRPS10 (UniProt P82664), the NP40-soluble protein abundance was 0.987 ± 0.11.

Regarding UniProt P56270-2, the NP40-soluble protein abundance is 0.989 ± 0.029.

Turning to UniProt P53384 and related entries, the NP40-soluble protein abundance came out at 0.967 ± 0.058.

As for UniProt P63092 and related entries, the NP40-soluble protein abundance was 1.02 ± 0.036.

PLK1 (UniProt P53350): the NP40-soluble protein abundance turned out to be 0.983 ± 0.027.

For the target UniProt P78344 and related entries, the NP40-soluble protein abundance was determined as 0.9526 ± 0.0035.

Consider UniProt P63146, for which the NP40-soluble protein abundance came to 0.941 ± 0.12.

As for UniProt P57088 and related entries, the NP40-soluble protein abundance was 0.888 ± 0.085.

The assay is the same for the next values; noted with them: concentration: 0.5mM.
On to MARS (UniProt P56192), for which the NP40-soluble protein abundance came out at 0.993 ± 0.069.

Regarding POLG (UniProt P54098), the NP40-soluble protein abundance was determined as 0.989 ± 0.037.

For the target UniProt P54277 and related entries, the NP40-soluble protein abundance was 1.22 ± 0.061.

For the target UniProt P55036 and related entries, the NP40-soluble protein abundance was determined as 0.946 ± 0.05.

On to PTTG1IP (UniProt P53801), for which the NP40-soluble protein abundance amounted to 0.941 ± 0.053.

As for UniProt P78536 and related entries, the NP40-soluble protein abundance was 0.839 ± 0.1.

For RAD23B (UniProt P54727), the NP40-soluble protein abundance stood at 0.867 ± 0.053.

With MRPS36 (UniProt P82909), the NP40-soluble protein abundance was found to be 0.921 ± 0.13.

For FKBP1A (UniProt P62942), the NP40-soluble protein abundance was found to be 0.984 ± 0.057.

For the target UniProt P62753, the NP40-soluble protein abundance was 0.89 ± 0.15.

For the target UniProt P62280, the NP40-soluble protein abundance is 0.892 ± 0.14.

Consider UniProt P63272, for which the NP40-soluble protein abundance was found to be 0.968 ± 0.056.

For the target PURA (UniProt Q00577), the NP40-soluble protein abundance is 0.984 ± 0.07.

For the target UniProt P57076, the NP40-soluble protein abundance is 0.967 ± 0.036.

UniProt P55265 and related entries: the NP40-soluble protein abundance was 1.07 ± 0.041.

On to UniProt P78330 and related entries, for which the NP40-soluble protein abundance stood at 0.969 ± 0.041.

Turning to UniProt P61088, the NP40-soluble protein abundance is 0.897 ± 0.1.

As for UniProt P62805, the NP40-soluble protein abundance was 0.777 ± 0.083.

As to UniProt P61978 and related entries, the NP40-soluble protein abundance stood at 0.986 ± 0.031.

With UniProt P57768 and related entries, the NP40-soluble protein abundance came out at 1.01 ± 0.036.

As for MTPN (UniProt P58546), the NP40-soluble protein abundance amounted to 0.784 ± 0.075.

Take HSPA2 (UniProt P54652): the NP40-soluble protein abundance worked out at 0.92 ± 0.033.

RRP1 (UniProt P56182): the NP40-soluble protein abundance is 1.02 ± 0.025.

Take UniProt P53396 and related entries: the NP40-soluble protein abundance amounted to 1.03 ± 0.052.

For STX17 (UniProt P56962), the NP40-soluble protein abundance came out at 0.999 ± 0.012.

On to UniProt P52948 and related entries, for which the NP40-soluble protein abundance is 1.02 ± 0.022.

RABGGTB (UniProt P53611): the NP40-soluble protein abundance came out at 1.09 ± 0.1.

As to RAB8A (UniProt P61006), the NP40-soluble protein abundance amounted to 1.02 ± 0.051.

With UniProt P61966, the NP40-soluble protein abundance was 0.942 ± 0.12.

Take UniProt P62834: the NP40-soluble protein abundance is 1.07 ± 0.077.

With MRPS10 (UniProt P82664), the NP40-soluble protein abundance came to 0.978 ± 0.09.

For the target UniProt P56270-2, the NP40-soluble protein abundance is 1 ± 0.02.

With UniProt P53384 and related entries, the NP40-soluble protein abundance was 0.991 ± 0.074.

UniProt P63092 and related entries: the NP40-soluble protein abundance is 1.03 ± 0.049.

For PLK1 (UniProt P53350), the NP40-soluble protein abundance amounted to 0.907 ± 0.026.

As to UniProt P78344 and related entries, the NP40-soluble protein abundance was 0.975 ± 0.03.

As to UniProt P63146, the NP40-soluble protein abundance came out at 0.988 ± 0.061.

As to UniProt P57088 and related entries, the NP40-soluble protein abundance was 0.887 ± 0.2.
